Laboratory results from PMC6937734.
Results are given in words; binding and its absence hold for the method and conditions named. In cells and extracts the contact can be indirect. A yes stands for co-enrichment or nearness to the bait. Other partners may have been found.

Sequences of proteins named here, by UniProt entry; tags and fusion partners are left off.
UniProt Q9UN81: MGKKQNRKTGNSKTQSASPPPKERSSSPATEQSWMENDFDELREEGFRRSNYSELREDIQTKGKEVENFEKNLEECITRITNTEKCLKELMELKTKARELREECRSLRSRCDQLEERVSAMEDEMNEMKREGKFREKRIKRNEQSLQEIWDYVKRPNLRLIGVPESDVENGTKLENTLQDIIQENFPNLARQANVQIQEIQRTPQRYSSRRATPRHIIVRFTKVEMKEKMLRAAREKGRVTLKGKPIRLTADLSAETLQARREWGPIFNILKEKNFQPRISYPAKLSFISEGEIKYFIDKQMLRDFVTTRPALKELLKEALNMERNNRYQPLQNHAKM
UniProt P08238: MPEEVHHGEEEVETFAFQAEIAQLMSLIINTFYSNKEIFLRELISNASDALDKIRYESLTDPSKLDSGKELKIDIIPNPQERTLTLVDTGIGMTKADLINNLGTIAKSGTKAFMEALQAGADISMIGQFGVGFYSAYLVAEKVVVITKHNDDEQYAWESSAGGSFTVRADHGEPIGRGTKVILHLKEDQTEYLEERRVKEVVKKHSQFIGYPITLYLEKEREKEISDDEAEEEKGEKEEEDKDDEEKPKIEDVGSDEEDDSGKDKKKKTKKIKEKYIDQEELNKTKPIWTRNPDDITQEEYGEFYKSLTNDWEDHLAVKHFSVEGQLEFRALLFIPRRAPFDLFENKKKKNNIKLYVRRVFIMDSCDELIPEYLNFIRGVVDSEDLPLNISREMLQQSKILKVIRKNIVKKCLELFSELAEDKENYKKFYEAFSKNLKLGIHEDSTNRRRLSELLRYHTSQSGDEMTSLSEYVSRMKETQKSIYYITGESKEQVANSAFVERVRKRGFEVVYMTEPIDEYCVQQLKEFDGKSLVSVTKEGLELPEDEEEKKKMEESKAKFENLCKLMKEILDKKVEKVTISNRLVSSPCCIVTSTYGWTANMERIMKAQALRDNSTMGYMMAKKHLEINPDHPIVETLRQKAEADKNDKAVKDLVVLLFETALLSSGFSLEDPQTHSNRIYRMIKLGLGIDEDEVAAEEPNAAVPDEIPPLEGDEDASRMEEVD
UniProt P07437: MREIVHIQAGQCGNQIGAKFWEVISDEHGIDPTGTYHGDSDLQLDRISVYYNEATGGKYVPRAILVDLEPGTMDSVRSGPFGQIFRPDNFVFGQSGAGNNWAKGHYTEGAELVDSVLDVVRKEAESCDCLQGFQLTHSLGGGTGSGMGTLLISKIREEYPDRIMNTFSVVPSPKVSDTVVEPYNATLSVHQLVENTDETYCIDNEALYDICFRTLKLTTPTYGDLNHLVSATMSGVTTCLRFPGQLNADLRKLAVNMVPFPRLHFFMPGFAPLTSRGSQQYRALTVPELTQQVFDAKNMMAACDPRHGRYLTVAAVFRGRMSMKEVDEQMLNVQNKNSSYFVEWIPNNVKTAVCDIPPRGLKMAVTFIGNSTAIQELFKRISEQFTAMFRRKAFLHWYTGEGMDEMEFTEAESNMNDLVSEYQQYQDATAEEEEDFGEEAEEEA

Molecular target: LINE-1 ORF1p, endogenous in colorectal cancers (L1RE1, consensus ORF1p) (human (endogenous in colorectal tumours)) (UniProt Q9UN81)
Experiment: affinity purification with mass spectrometry; anti-ORF1p (Millipore Sigma #MABC1152) affinity medium with clarified extracts of cryomilled patient colorectal tumours A, B, C; 20 mM HEPES pH 7.4, 500 mM NaCl, 1% Triton X-100; 1 h at 4 °C; label-free quantitative MS against mouse IgG mock capture or matched normal tissue; second set of tumour A with RNasin

Molecule | binding
HSP90AB1 (from UniProt P08238 1-724) | binds
UPF1 (protein, UniProt Q92900 1-1129) MSVEAYGPSSQTLTFLDTEEAELLGADTQGSEFEFTDFTLPSQTQTPPGGPGGPGGGGAGGPGGAGAGAAAGQLDAQVGPEGILQNGAVDDSVAKTSQLLAELNFEEDEEDTYYTKDLPIHACSYCGIHDPACVVYCNTSKKWFCNGRGNTSGSHIVNHLVRAKCKEVTLHKDGPLGETVLECYNCGCRNVFLLGFIPAKADSVVVLLCRQPCASQSSLKDINWDSSQWQPLIQDRCFLSWLVKIPSEQEQLRARQITAQQINKLEELWKENPSATLEDLEKPGVDEEPQHVLLRYEDAYQYQNIFGPLVKLEADYDKKLKESQTQDNITVRWDLGLNKKRIAYFTLPKTDSGNEDLVIIWLRDMRLMQGDEICLRYKGDLAPLWKGIGHVIKVPDNYGDEIAIELRSSVGAPVEVTHNFQVDFVWKSTSFDRMQSALKTFAVDETSVSGYIYHKLLGHEVEDVIIKCQLPKRFTAQGLPDLNHSQVYAVKTVLQRPLSLIQGPPGTGKTVTSATIVYHLARQGNGPVLVCAPSNIAVDQLTEKIHQTGLKVVRLCAKSREAIDSPVSFLALHNQIRNMDSMPELQKLQQLKDETGELSSADEKRYRALKRTAERELLMNADVICCTCVGAGDPRLAKMQFRSILIDESTQATEPECMVPVVLGAKQLILVGDHCQLGPVVMCKKAAKAGLSQSLFERLVVLGIRPIRLQVQYRMHPALSAFPSNIFYEGSLQNGVTAADRVKKGFDFQWPQPDKPMFFYVTQGQEEIASSGTSYLNRTEAANVEKITTKLLKAGAKPDQIGIITPYEGQRSYLVQYMQFSGSLHTKLYQEVEIASVDAFQGREKDFIILSCVRANEHQGIGFLNDPRRLNVALTRARYGVIIVGNPKALSKQPLWNHLLNYYKEQKVLVEGPLNNLRESLMQFSKPRKLVNTINPGARFMTTAMYDAREAIIPGSVYDRSSQGRPSSMYFQTHDQIGMISAGPSHVAAMNIPIPFNLVMPPMPPPGYFGQANGPAAGRGTPKGKTGRGGRQKNRFGLPGPSQTNLPNSQASQDVASQPFSQGALTQGYISMSQPSQMSQPGLSQPELSQDSYLGDEFKSQIDVALSQDSTYQGERAYQHGGVTGLSQY | binds

Second part, the molecule after the results:

binding | Molecule
binds | TUBB (from UniProt P07437 1-444)
binds | HSP90AA1 (from UniProt P07900 1-732)
